The values that follow come from patent US6207816.

Protein sequences, listed by entry. Tags and fused reporters are not part of them. Residues count along the entry.
UniProt P01137, 279-390: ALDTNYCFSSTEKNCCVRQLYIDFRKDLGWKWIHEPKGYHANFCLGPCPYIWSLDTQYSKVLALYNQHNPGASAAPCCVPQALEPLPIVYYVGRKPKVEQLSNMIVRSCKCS

In the data set the target is TGF-beta1 (Homo sapiens) (UniProt P01137). Put plainly: filter binding. The conditions noted are these: modification not tolerated, purified recombinant protein, protein details: Genentech.

A negative result means that nothing was seen under these conditions.

For “GGGGGAGAACGCGGAUCCAUAACCGGCUGCAUGGGAGGGACAUCCUGGGAAAGGACGGGUCGAGAUGACCUGAGCAGUUCCGGCAAGCUUCGCUCUAGAUCUCCCUUUAGUGAGGGUUA [lib2-6-8 2'-F]”, where the note is “2'-F pyrimidines”, the binding result is “no binding”.

For “GGGGGAGAACGCGGAUCCAUAACCGGCUGCAUGGGAGGGACAUCCUGGGAAAGGACGGGUCGAGAUGACCUGAGCAGUUCCGGCAAGCUUCGCUCUAGAUCUCCCUUUAGUGAGGGUUA [lib2-6-8 2'-NH2]”, the binding result (2'-NH2 pyrimidines) is “no binding”.

As for “GGGGGAGAACGCGGAUCCGGUCACCCGGGCAUAUAACAAUGCCGACACUGGGGUACCUGGGACGGGUGGGACUGGACGGAAGAAGCUUCGCUCUAGAUCUCCCUUUAGUGAGGGUUA [lib1-20-12 2'-F]”, the binding result (2'-F pyrimidines) is “no binding”.

Consider “GGGGGAGAACGCGGAUCCGGUCACCCGGGCAUAUAACAAUGCCGACACUGGGGUACCUGGGACGGGUGGGACUGGACGGAAGAAGCUUCGCUCUAGAUCUCCCUUUAGUGAGGGUUA [lib1-20-12 2'-NH2]”, for which the binding result (2'-NH2 pyrimidines) was “no binding”.
